# ± gives the standard deviation. Some of the results follow. Many entries were measured with a wide error.
# Tested on: EfPiwi piRISC loaded with L1MC piRNA (26 nt)
# Experiment: pre-steady-state target cleavage rate (min^-1); guide: L1MC piRNA 5'p-UAACUAAAUACUAUGCAAGCUGUAGG; MIWI and MILI are mouse PIWI proteins and EfPiwi is from a freshwater sponge; tags in brackets are library labels; higher = faster piRNA-guided slicing of the target
# Settings: auxiliary factor: none (no Gtsf1)
# Outline: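 The method was Cleave-'n-Seq, in which uncleaved targets from a transcribed, DNA-blocked target RNA library were sequenced after exposure to active affinity-purified piRISC carrying one synthetic guide, with or without GTSF1 partner protein. Reactions contained 0.1 nM library, 1 nM piRISC and, where present, 500 nM GTSF1 in HEPES–potassium acetate buffer at 33 °C for 0–8 or 0–960 min. Reads were normalised to depth and to weakly complementary targets, three trials were pooled, and k3 was capped at 0.0001 min^-1. The pre-steady-state cleavage rate came from a burst-and-steady-state fit.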
row,Sequence,pre-steady-state target cleavage rate
1,UCCUGCUACAGCAUGCAUAGUAUUUAGAUA,0.000111 ± 0.039
2,UCCUGGUACAGGUUGCAUACUAUUUAGUUA,0.000728 ± 0.015
3,UCCUGGAUGUGCUUGCAUAGUAAUUACUUA,0.000264 ± 0.026
4,UCCUGCUACAUGCUUGCAUAGUAUUUAGUUA,0.000411 ± 0.015
5,UCCUGGAACAGCUUGCAUAGUAUUAACUUA,0.000196 ± 0.043
6,UCCUGGAACAGCUAGCAAAGUAUUUAGUUA,0.000785 ± 0.0097
7,UCCUGGAACAGCUAGCUUAGUAUUUAGUUA,0.000702 ± 0.0089
8,UCCUGGAACAGCUUGCAUAGUUUUUAGUUA,0.000817 ± 0.0085
9,UCCUGGAACACCUUGCAUAGUAUUUAGAAA,0.000327 ± 0.021
10,UCCUGGAACAGCAUGCAUAGUAUUUAGAUA,0.000411 ± 0.021
11,UCCUGGAACAGCUUGCAAAGAAUUUAGUUA,0.00058 ± 0.011
12,UCCUGCUAGAGCAUGCAUAGUAUUUAGUUA,0.000253 ± 0.016
13,UCCUGGAUGUCGAACGUAUGGUAUUUAGUUA,0.000304 ± 0.021
14,UCCUCCUACAGCUUCCAUAGUAUUUAGUUA,0.000304 ± 0.015
15,UCCUCCUACAGCUUGCAUACUAUUUAGAAA,0.000397 ± 0.016
16,UCCUGGAUGAGCUUGGCAUAGUAUUUAGUUA,0.000243 ± 0.039
17,UCCUGCUACUGCUUCCAUAGUAUUUAGUUA,0.000308 ± 0.014
18,UCCUGCUACAGCUUGCAUAGUAUAAUGUUA,0.000253 ± 0.029
19,UCCUGGAACAGCUUGCAUAGAAUUUAGUUA,0.00151 ± 0.0048
20,UCCUGGAUGUGCUGUGCAUAGUAUUUAGUUA,0.000726 ± 0.016

row,Sequence,pre-steady-state target cleavage rate
1,UCCUGCUUGAGCUUGCAUAGUAUUUUCAAA,0.000229 ± 0.031
2,UCCUGGAACAGCUUGGAUAGUAUUUACUUA,0.000254 ± 0.026
3,UCCUGCUAAAGCUUGCAUAGUAUUUAGUUA,0.000139 ± 0.019
4,UCCUGGAUGAGCUUGCAUUCUAUUUAGUUA,0.000265 ± 0.028
5,UCCUGGAUGAGCUUGCAUUGUAUUUACUUA,0.0003 ± 0.022
6,UCCUGCUACAGCUUGCAAAGUAUUUACUUA,0.000227 ± 0.031
7,UCCUGCUACAGCUUGCAUACAUUUUACAAA,0.000132 ± 0.043
8,UCCUGCUACAGCAUGCAUAGUAUUAAGUUA,0.0022 ± 0.0065
9,UCCUGCUACAGCAUGCAUAGUAUUUAGUUA,0.000796 ± 0.0079
10,UCCUGGAUGUCGUAGCAUUGUAUUUAGUUA,0.000358 ± 0.022
11,UCCUGGUACAGCUUGGUUAGUAUUUAGUAA,0.000553 ± 0.018
12,UCCUGGAUGAGCUUGCAUAGUAUAUAGUAA,0.000447 ± 0.022
13,UCCUGGAUGUGCUUGCAUAGCAUUUAGUUA,0.00136 ± 0.0067
14,UCCUGGAUGAGCUUGCAUAGUAAUUACUUA,0.00065 ± 0.012
15,UCCUCCUACAGCUUGCAAUCUAUUUAGUUA,0.000898 ± 0.0056
16,UCCUGCUAGAGCUUGCAAAGUAUUUAGUUA,0.00104 ± 0.0076
17,UCCUGGAUCAGCUUACAUAGUAUUUAGUUA,0.000873 ± 0.01
18,UCCUGGAACAGCUUGCAAUAGUAUUUAGUUA,0.00109 ± 0.0075
19,UCCUGGAAGUGCUUGCAUAGUAUUUAGUAA,0.000719 ± 0.012
20,UCCUGGAUGUGCUUGCAUAGAAUUUAGAUA,0.000258 ± 0.025

# Fetched one by one from the list above (2):
row,Sequence,pre-steady-state target cleavage rate
8,UCCUGCUACAGCAUGCAUAGUAUUAAGUUA,0.0022 ± 0.0065
4,UCCUGGAUGAGCUUGCAUUCUAUUUAGUUA,0.000265 ± 0.028
